Experimental findings from the supplement of paper PMC10849652 are described below.

Chains of the proteins cited; added tags and fusions are not shown. Lines headed by an entry give the natural chain unless they say otherwise; changes in a name come on top.
UniProt Q9H6X4: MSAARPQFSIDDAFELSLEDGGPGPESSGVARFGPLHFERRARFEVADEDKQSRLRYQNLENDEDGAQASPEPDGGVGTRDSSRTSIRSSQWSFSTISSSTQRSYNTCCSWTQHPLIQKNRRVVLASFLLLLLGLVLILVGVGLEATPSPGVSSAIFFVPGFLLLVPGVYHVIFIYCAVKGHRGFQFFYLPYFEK
UniProt Q5SWH9: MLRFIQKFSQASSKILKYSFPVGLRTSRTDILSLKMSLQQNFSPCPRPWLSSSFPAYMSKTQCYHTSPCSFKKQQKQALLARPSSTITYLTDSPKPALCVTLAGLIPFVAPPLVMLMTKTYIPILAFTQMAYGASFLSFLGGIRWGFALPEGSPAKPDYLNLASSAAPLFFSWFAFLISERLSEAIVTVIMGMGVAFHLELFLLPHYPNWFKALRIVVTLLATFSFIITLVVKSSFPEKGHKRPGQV
UniProt Q96I45: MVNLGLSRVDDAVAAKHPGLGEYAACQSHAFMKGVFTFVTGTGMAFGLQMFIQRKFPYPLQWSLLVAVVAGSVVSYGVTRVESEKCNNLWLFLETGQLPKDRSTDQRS
UniProt Q8TDI8: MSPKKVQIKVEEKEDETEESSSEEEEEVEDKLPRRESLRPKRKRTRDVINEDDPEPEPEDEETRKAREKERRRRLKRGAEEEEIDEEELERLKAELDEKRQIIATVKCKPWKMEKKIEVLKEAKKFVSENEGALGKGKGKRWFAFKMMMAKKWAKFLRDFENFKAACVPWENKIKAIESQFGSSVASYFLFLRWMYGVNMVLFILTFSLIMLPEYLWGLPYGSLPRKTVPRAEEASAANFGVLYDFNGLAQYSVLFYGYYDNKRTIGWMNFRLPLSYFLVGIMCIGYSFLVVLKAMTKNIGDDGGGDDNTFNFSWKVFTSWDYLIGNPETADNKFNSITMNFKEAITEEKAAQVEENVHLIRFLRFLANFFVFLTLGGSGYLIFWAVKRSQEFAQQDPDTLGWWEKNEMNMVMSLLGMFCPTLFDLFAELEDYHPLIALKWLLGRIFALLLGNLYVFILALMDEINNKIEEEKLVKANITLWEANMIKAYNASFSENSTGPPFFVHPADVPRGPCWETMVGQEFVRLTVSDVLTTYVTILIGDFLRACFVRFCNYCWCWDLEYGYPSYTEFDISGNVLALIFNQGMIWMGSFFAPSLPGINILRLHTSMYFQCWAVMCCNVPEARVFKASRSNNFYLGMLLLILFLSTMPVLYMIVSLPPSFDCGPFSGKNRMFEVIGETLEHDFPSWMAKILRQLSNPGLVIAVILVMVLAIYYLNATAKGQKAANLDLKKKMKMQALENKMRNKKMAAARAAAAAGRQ
UniProt Q9NWH2: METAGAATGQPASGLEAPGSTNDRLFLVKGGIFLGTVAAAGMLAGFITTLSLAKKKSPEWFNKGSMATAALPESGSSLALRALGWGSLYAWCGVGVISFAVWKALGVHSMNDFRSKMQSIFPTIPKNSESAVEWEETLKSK
UniProt O00220, whole entry, looked up: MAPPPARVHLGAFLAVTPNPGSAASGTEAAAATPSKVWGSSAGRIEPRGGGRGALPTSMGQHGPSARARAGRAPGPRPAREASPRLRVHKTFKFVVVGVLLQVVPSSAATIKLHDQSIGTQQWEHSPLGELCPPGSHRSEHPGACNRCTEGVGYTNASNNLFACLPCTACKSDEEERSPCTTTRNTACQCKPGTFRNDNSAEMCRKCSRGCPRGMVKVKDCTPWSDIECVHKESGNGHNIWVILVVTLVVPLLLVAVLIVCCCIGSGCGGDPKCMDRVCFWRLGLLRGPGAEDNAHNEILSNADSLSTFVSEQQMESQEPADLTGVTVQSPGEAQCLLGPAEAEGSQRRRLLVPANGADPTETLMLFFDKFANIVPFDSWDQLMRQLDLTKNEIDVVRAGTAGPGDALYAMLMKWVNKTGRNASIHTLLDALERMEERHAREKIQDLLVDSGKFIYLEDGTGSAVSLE
UniProt Q96K49: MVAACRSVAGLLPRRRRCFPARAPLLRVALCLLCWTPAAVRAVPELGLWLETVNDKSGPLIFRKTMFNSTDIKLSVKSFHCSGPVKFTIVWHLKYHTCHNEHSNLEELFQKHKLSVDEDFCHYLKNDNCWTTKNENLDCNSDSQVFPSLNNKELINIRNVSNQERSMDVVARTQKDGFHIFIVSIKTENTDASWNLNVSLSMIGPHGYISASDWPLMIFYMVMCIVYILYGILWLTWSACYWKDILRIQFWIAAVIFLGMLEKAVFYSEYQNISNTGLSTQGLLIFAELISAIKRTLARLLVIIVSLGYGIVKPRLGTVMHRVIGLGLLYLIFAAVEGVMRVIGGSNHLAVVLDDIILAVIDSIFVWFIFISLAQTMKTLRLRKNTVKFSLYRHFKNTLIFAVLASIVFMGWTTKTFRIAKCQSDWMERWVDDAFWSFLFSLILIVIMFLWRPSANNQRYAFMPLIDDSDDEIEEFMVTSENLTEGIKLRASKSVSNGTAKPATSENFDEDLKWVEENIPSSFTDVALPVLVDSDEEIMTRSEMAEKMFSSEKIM
UniProt Q9P0S9: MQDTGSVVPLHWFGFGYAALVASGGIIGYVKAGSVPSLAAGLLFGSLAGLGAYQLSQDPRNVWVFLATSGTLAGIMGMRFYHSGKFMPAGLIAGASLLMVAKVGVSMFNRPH
UniProt Q9BZW5, whole entry, looked up: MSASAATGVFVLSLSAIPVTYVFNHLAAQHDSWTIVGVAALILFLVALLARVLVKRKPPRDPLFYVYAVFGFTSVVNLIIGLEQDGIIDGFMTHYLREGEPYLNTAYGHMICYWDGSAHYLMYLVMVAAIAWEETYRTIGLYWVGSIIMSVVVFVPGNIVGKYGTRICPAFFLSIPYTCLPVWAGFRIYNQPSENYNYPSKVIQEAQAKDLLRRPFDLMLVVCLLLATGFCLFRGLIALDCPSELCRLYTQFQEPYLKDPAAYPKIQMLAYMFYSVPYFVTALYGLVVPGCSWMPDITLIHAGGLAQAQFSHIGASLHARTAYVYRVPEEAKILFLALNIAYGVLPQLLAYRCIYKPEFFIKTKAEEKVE
UniProt O14763, whole entry, looked up: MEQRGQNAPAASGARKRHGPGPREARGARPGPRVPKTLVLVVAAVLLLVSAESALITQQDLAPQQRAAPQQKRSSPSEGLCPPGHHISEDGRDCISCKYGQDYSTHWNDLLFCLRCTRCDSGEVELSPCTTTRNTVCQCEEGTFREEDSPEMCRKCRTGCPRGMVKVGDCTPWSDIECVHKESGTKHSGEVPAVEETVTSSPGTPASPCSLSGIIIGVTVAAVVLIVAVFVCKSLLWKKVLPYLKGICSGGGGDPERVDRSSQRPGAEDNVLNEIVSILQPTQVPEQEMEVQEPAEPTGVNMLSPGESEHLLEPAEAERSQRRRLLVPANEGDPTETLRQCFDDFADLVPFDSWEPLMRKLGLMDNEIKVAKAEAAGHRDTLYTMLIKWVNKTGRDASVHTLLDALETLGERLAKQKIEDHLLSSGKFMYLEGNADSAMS
UniProt Q9NS93: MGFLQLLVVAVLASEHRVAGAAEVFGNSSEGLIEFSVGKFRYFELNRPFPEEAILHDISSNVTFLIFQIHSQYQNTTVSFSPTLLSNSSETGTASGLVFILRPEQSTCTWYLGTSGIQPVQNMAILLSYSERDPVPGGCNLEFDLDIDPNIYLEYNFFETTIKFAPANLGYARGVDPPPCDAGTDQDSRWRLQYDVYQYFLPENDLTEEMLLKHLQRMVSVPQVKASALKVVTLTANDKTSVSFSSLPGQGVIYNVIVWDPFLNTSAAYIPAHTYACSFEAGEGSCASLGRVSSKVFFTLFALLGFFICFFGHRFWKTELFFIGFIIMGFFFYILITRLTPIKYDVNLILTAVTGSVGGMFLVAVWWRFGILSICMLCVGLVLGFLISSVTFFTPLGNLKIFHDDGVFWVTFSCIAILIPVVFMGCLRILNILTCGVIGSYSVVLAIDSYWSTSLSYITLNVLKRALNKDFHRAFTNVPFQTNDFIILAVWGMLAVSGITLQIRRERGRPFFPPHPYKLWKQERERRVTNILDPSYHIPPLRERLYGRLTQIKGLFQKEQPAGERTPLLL
UniProt Q8N131: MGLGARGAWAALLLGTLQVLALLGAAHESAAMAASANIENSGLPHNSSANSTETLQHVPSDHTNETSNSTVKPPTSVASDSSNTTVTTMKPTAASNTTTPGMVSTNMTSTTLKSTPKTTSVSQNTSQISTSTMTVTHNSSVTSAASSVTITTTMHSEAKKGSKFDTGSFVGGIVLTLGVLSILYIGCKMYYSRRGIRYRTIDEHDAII
UniProt Q86XT9, whole entry, looked up: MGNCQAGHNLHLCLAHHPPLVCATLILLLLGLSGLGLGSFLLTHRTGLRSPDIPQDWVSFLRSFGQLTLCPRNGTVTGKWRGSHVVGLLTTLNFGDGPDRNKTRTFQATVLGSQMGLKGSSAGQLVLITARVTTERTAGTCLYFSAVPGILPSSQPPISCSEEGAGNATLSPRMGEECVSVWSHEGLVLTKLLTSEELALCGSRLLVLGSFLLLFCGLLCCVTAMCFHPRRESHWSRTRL
UniProt Q5U3C3: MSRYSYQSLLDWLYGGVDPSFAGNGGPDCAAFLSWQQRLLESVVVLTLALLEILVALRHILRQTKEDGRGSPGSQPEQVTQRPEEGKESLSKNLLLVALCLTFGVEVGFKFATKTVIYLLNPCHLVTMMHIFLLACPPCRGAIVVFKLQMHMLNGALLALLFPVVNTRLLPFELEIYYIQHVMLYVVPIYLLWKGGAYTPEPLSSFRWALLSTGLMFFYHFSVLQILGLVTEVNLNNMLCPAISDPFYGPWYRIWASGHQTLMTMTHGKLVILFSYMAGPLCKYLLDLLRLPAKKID
UniProt Q86UE8, whole entry, looked up: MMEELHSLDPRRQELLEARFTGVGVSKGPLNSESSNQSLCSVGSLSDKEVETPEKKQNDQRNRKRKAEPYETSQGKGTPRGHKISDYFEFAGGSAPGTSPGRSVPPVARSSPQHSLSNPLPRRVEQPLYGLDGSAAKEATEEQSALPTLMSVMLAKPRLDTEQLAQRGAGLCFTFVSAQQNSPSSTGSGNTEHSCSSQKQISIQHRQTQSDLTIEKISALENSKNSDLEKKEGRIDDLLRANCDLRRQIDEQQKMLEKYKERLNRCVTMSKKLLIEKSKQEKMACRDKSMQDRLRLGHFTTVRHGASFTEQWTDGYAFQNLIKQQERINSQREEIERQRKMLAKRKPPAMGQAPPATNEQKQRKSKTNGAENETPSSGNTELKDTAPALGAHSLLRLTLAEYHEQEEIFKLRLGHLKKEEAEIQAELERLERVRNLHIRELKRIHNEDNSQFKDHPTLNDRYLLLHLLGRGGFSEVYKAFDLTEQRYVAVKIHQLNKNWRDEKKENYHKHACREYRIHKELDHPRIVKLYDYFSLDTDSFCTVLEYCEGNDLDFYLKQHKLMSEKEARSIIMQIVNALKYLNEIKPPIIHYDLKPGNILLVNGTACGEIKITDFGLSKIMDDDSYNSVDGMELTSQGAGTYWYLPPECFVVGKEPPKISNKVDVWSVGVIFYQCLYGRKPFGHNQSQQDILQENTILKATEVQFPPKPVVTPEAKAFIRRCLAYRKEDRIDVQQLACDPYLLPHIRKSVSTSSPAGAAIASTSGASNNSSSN
UniProt Q9NUM4, whole entry, looked up: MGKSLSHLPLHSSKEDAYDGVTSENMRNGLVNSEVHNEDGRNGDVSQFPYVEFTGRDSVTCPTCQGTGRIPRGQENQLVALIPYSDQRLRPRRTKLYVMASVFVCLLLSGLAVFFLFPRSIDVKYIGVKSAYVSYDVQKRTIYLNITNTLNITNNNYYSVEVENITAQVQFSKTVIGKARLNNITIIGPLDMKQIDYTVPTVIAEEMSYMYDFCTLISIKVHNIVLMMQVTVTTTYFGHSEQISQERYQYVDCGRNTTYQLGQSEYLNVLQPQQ
UniProt Q9Y3Q3: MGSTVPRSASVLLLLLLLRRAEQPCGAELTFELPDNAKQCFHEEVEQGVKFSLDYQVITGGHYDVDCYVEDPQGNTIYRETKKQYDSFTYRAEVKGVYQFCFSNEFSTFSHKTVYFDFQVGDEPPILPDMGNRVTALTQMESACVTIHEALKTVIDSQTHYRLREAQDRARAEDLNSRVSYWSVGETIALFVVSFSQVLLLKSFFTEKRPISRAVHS
UniProt Q96IK0: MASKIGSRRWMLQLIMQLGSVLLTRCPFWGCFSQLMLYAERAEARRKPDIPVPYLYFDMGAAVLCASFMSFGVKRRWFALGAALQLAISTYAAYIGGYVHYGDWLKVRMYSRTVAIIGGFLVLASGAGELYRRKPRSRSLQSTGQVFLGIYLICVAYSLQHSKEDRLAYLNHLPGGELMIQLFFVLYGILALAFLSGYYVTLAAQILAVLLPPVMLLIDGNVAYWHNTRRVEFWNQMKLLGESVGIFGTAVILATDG
UniProt Q9BVT8: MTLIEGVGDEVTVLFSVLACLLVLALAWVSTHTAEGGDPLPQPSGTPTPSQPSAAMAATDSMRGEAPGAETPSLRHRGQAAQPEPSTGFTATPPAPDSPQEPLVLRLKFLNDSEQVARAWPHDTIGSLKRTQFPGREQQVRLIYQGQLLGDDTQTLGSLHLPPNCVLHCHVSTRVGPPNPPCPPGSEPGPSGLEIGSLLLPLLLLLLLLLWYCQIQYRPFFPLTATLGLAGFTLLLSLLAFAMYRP

The list shows a part of the results.

Compound in one assay: C/C(=N\NC(=O)C1=CC(=CC=C1)S(=O)(=O)N2CCOCC2)/C3=C(C=CC(=C3)Cl)O
The assay can be described thus: log2 fold change, soluble protein after heating vs DMSO (PISA); higher = thermal stabilisation; K562 cells, 10 uM, 30 min; active = over 0.2 and 3.5 SD of the protein, either way, in both replicates (recomputed). An outline of the steps:
(§1)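 Thermal stability values are relative to control samples and come from duplicates. They are expressed as log2 fold changes. For measurement, K562 cells (2×10^6 cells/mL) received 10 μM compound for 30 min, and aliquots were heated for 3 min over 48°C-58°C, pooled, and extracted at 4°C in PBS with 0.5% NP-40. Soluble protein, the supernatant after 21,000xg for 90 min, was quantified by TMTpro 16plex LC-MS/MS with equalised channel sums.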
Consider TMEM134 (UniProt Q9H6X4), for which the log2 fold change is inactive: 0.019.
For TMEM69 (UniProt Q5SWH9), the log2 fold change is inactive: 0.078.
Regarding TMEM177 (UniProt Q53S58), the log2 fold change is inactive: 0.044.
On to TMEM141 (UniProt Q96I45), for which the log2 fold change is inactive: 0.027.
For TMEM63A (UniProt O94886), the log2 fold change was inactive: 0.026.
Take TMEM120B (UniProt A0PK00): the log2 fold change was inactive: -0.026.
Same read-out and setting: to TMEM147 (UniProt Q9BVK8) belongs inactive: -0.053; to TMC1 (UniProt Q8TDI8), inactive: -0.107.
With TLR9 isoform 4 (UniProt Q9NR96), the log2 fold change is inactive: -0.065.
In the case of TMEM223 (UniProt A0PJW6), the log2 fold change is inactive: 0.052.
As to TMEM242 (UniProt Q9NWH2), the log2 fold change is inactive: 0.046.
Turning to TNFRSF10A (UniProt O00220), the log2 fold change is inactive: -0.05.
In the case of TMEM9B (UniProt Q9NQ34), the log2 fold change is inactive: -0.044.
On the same count and under the same terms, to TMEM268 isoform 3 (UniProt Q5VZI3) belongs inactive: 0.061; to TMEM87B (UniProt Q96K49), inactive: 0.059; to TMEM161B (UniProt Q8NDZ6), inactive: -0.074.
In the case of TMEM14C (UniProt Q9P0S9), the log2 fold change was inactive: -0.052.
As for TM6SF1 (UniProt Q9BZW5), the log2 fold change was inactive: 0.04.
As for TMEM104 (UniProt Q8NE00), the log2 fold change is inactive: -0.026.
Still for that read-out and setting: to TNFAIP3 (UniProt P21580) belongs inactive: 0.077; to TNFRSF10B (UniProt O14763), inactive: 0.011; to TM7SF3 (UniProt Q9NS93), inactive: 0.053.
Turning to TMC6 (UniProt Q7Z403), the log2 fold change is inactive: -0.016.
TMEM192 (UniProt Q8IY95): the log2 fold change was inactive: -0.017.
For TMEM41A (UniProt Q96HV5), the log2 fold change was inactive: 0.046.
Same read-out and setting: to TMEM123 (UniProt Q8N131) belongs inactive: 0.092; to TMBIM1 (UniProt Q969X1), inactive: -0.139; to TMEM219 (UniProt Q86XT9), inactive: 0.035.
As for TMEM164 (UniProt Q5U3C3), the log2 fold change was inactive: 0.178.
As to TLK2 isoform 2 (UniProt Q86UE8), the log2 fold change was inactive: 0.008.
Consider TMED8 (UniProt Q6PL24), for which the log2 fold change was inactive: -0.047.
Still for that read-out and setting: to TMEM267 (UniProt Q0VDI3) belongs inactive: -0.151.
As to TMEM181 (UniProt Q9P2C4), the log2 fold change is inactive: -0.03.
Consider TMEM106B (UniProt Q9NUM4), for which the log2 fold change was inactive: 0.028.
As for TMEM9 (UniProt Q9P0T7), the log2 fold change is inactive: 0.008.
As for TMED3 (UniProt Q9Y3Q3), the log2 fold change was inactive: -0.09.
For the target TMEM189-UBE2V1 (UniProt I3L0A0), the log2 fold change was inactive: 0.025.
On the same count and under the same terms, to TMEM101 (UniProt Q96IK0) belongs inactive: 0.047; to TMUB1 (UniProt Q9BVT8), inactive: -0.002.

Compound in another assay: C1=CC(=C(C=C1Cl)C2=NC3=NC=CN=C3C(=N2)NC4=CC=NC=C4)F
The description is as above. An outline of the steps: as §1
As for TMEM134 (UniProt Q9H6X4), the log2 fold change was inactive: 0.189.
Consider TMEM177 (UniProt Q53S58), for which the log2 fold change is inactive: 0.03.
TMEM63A (UniProt O94886): the log2 fold change is inactive: 0.007.
Take TMEM147 (UniProt Q9BVK8): the log2 fold change was inactive: -0.031.
On to TMC1 (UniProt Q8TDI8), for which the log2 fold change is inactive: 0.007.
Take TLR9 isoform 4 (UniProt Q9NR96): the log2 fold change was inactive: 0.088.
Take TMEM223 (UniProt A0PJW6): the log2 fold change was inactive: -0.018.
As to TMEM242 (UniProt Q9NWH2), the log2 fold change was inactive: -0.111.
For TNFRSF10A (UniProt O00220), the log2 fold change is inactive: -0.023.
The same measure, in the same setting: to TMEM9B (UniProt Q9NQ34) belongs inactive: 0.009.
TMEM268 isoform 3 (UniProt Q5VZI3): the log2 fold change is inactive: -0.166.
With TMEM87B (UniProt Q96K49), the log2 fold change is inactive: -0.069.
As to TMEM161B (UniProt Q8NDZ6), the log2 fold change was inactive: 0.013.
With TM6SF1 (UniProt Q9BZW5), the log2 fold change is inactive: 0.087.
For the target TMEM104 (UniProt Q8NE00), the log2 fold change was inactive: 0.037.
In the case of TNFAIP3 (UniProt P21580), the log2 fold change is inactive: 0.087.
For the target TNFRSF10B (UniProt O14763), the log2 fold change was inactive: 0.017.
For the target TMEM192 (UniProt Q8IY95), the log2 fold change is inactive: 0.011.
Consider TMEM41A (UniProt Q96HV5), for which the log2 fold change is inactive: -0.02.
On the same count and under the same terms, in the case of TMEM123 (UniProt Q8N131) it was inactive: 0.033; in that of TMBIM1 (UniProt Q969X1), inactive: 0.122; in that of TMEM219 (UniProt Q86XT9), inactive: 0.059.
With TMEM164 (UniProt Q5U3C3), the log2 fold change is inactive: 0.041.
Still for that read-out and setting: to TLK2 isoform 2 (UniProt Q86UE8) belongs inactive: 0.04; to TMEM106B (UniProt Q9NUM4), inactive: -0.047.
Take TMEM9 (UniProt Q9P0T7): the log2 fold change is inactive: 0.254.
Take TMED3 (UniProt Q9Y3Q3): the log2 fold change was inactive: 0.089.
As to TMEM189-UBE2V1 (UniProt I3L0A0), the log2 fold change was inactive: 0.015.
Turning to TMUB1 (UniProt Q9BVT8), the log2 fold change was inactive: -0.162.
